PubChem BioAssay AID1671195 – Yale University, 2021
Shown is an unselected part of about 22,000 reagents. About 1,510 of all reagents (6.9%) count as active. 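Active includes knockdowns raising or lowering LDL uptake; positive z-scores mean more uptake, negative mean less.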 Reagent sequences are not shown.

- Screen: 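Genes whose knockdown alters LDL uptake in liver cancer cells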 (primary screen)
- Cell system: human Huh7 hepatoma cells
- Reagent: siRNA pool against human genes, 18 nM
- Timing: about 2 to 2.5 days of knockdown, then 8 h LDL uptake
- Conditions: DiI-labelled LDL at 30 µg/ml for 8 h, in lipoprotein-deficient serum medium
- Measurement: 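Fluorescent LDL signal imaged in cells, scaled to the plate median, robust z-score for each replicate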
- Scale: robust z-score: higher = more LDL uptake after knockdown
- Call rule: 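a gene counts as active if at least two replicate z-scores exceed ±2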

| target | robust z-score, replicate 1 | robust z-score, replicate 2 | robust z-score, replicate 3 | Outcome |
| --- | --- | --- | --- | --- |
| OR52N4 (olfactory receptor family 52 subfamily N member 4) | -0.498 | -0.945 | -0.367 | inactive |
| ANKDD1B (ankyrin repeat and death domain containing 1B) | 2.64 | 1.35 | 1.7 | inactive |
| KRT7 (keratin 7) | -0.544 | 0.245 | -0.0312 | inactive |
| ZBTB41 (zinc finger and BTB domain containing 41) | -2.66 | -2.7 | -2.67 | active |
| DHRS12 (dehydrogenase/reductase 12) | -1.22 | -1.39 | -1.46 | inactive |
| MMP19 (matrix metallopeptidase 19) | -0.582 | -0.75 | -0.54 | inactive |
| LOC390564 (retired record) | 1.97 | 2.13 | 2.46 | active |
| MAP7D1 (MAP7 domain containing 1) | -1.24 | -1.6 | 2.16 | inactive |
| ZNRF4 (zinc and ring finger 4) | -1.34 | -0.612 | -1.48 | inactive |
| SLC16A1 | -0.832 | -0.888 | -0.726 | inactive |
| FAM91A1 (family with sequence similarity 91 member A1) | 0.358 | 0.0318 | 0.928 | inactive |
| SLC2A13 | -0.271 | -0.521 | -0.137 | inactive |
| CLSTN1 (calsyntenin 1) | -0.216 | 0.261 | 0.529 | inactive |
| CNKSR3 (CNKSR family member 3) | -1.55 | -1.04 | -1.34 | inactive |
| AKR1C1 (aldo-keto reductase family 1 member C1) | -1.76 | -1.92 | -2.22 | active |
| RWDD4 (RWD domain containing 4) | -0.51 | -0.517 | -0.845 | inactive |
| LOC441551 (retired record) | 1.65 | 2.16 | 2.37 | active |
| GPR84 (G protein-coupled receptor 84) | 0.196 | -0.448 | -0.492 | inactive |
| PRAP1 (proline rich acidic protein 1) | -0.854 | -0.246 | -0.0384 | inactive |
| TBCB (tubulin folding cofactor B) | 0.512 | -0.0672 | 0.0425 | inactive |
| FLJ45337 (retired record) | -0.284 | -0.333 | -0.301 | inactive |
| LOC148766 (retired record) | 0.505 | 0.64 | 0.791 | inactive |
| LINC01749 (long independently transcribed non-coding RNA 1749) | 2.4 | 2.73 | 2.68 | active |
| MAP3K4 (mitogen-activated protein kinase kinase kinase 4) | -0.677 | -0.875 | -0.93 | inactive |
| MARS2 (methionyl-tRNA synthetase 2, mitochondrial) | -0.507 | 0.0486 | -0.732 | inactive |
| DDX31 (DEAD-box helicase 31) | -0.762 | -0.0208 | 0.0119 | inactive |
| DMRTC2 (DMRT like family C2) | -0.325 | -0.885 | -2.19 | inactive |
| GPAT3 (glycerol-3-phosphate acyltransferase 3) | 0.562 | 2.5 | 0.835 | inactive |
| MAL (mal, T cell differentiation protein (MAL blood group)) | -0.308 | -0.73 | -1.32 | inactive |
| C3P1 (complement 3 precursor pseudogene) | -1.77 | -1.71 | -1.59 | inactive |
| RNF31 (ring finger protein 31) | 0.442 | 0.137 | 0.268 | inactive |
| H2AC11 (H2A clustered histone 11) | 1.42 | 0.134 | 0.0446 | inactive |
| C1D (C1D nuclear receptor corepressor) | 0.459 | 0.501 | -0.243 | inactive |
| BASP1 (brain abundant membrane attached signal protein 1) | -1.52 | 0.523 | 0.257 | inactive |
| SENP3 (SUMO specific peptidase 3) | 0.354 | 0.0924 | 0.219 | inactive |
| MSH5 (mutS homolog 5) | 2.5 | 2.24 | 3.42 | active |
| LOC441071 (retired record) | -0.328 | -0.408 | -0.456 | inactive |
| LAMA4 (laminin subunit alpha 4) | -0.112 | 0.0279 | -0.26 | inactive |
| IFI44 (interferon induced protein 44) | 0.804 | 1.23 | 0.234 | inactive |
| CAPNS1 (calpain small subunit 1) | -1.7 | -0.662 | -0.966 | inactive |
| ADAM29 (ADAM metallopeptidase domain 29) | 4.42 | 3.47 | 4.05 | active |
| NDP (norrin cystine knot growth factor NDP) | -0.231 | -0.766 | -0.637 | inactive |
| NOL8 (nucleolar protein 8) | 0.572 | 1.1 | -0.542 | inactive |
| SOHLH1 | 0.288 | 0.619 | -0.0301 | inactive |
| MEX3C (mex-3 RNA binding family member C) | 1.08 | -0.734 | -0.222 | inactive |
| U2SURP (U2 snRNP associated SURP domain containing) | -0.264 | -0.408 | -0.452 | inactive |
| TRGV3 (T cell receptor gamma variable 3) | -1.4 | -0.7 | -1.05 | inactive |
| IFT52 (intraflagellar transport 52) | -0.352 | -1.32 | 0.198 | inactive |
| CNN3 (calponin 3) | 1.78 | 1.83 | 1.73 | inactive |
| OTOG (otogelin) | -0.842 | -0.044 | 0.0522 | inactive |
| RPL22 (ribosomal protein L22) | -0.434 | 1.65 | -0.959 | inactive |
| ART3 (ADP-ribosyltransferase 3 (inactive)) | 0.402 | -0.749 | -0.0166 | inactive |
| CAMK4 (calcium/calmodulin dependent protein kinase IV) | 0.465 | 0.681 | 1.04 | inactive |
| STX17-DT (STX17 divergent transcript) | -0.556 | -0.0903 | 0.000173 | inactive |
| MUC7 (mucin 7, secreted) | 1.25 | 1.49 | 1.71 | inactive |
| SEZ6 (seizure related 6 homolog) | -0.725 | -0.599 | -1.26 | inactive |
| BRF2 (BRF2 general transcription factor IIIB subunit) | 1.54 | 1.64 | 1.48 | inactive |
| TMEM17 (transmembrane protein 17) | 1.92 | 1.83 | 1.16 | inactive |
| IFNW1 (interferon omega 1) | -0.965 | -1.14 | -0.989 | inactive |
| PRR5 (proline rich 5) | 1.08 | -0.35 | 0.728 | inactive |
| DEFB124 (defensin beta 124) | 0.0306 | -0.0867 | -0.235 | inactive |
| PTGDR (prostaglandin D2 receptor) | -0.803 | -0.325 | -0.593 | inactive |
| LGALS9 (galectin 9) | 3.5 | 4.24 | 4.42 | active |
| JAML (junction adhesion molecule like) | 2.4 | 1.76 | 1.03 | inactive |
| LINC00200 (long independently transcribed non-coding RNA 200) | 2.06 | 0.711 | 1.16 | inactive |
| DENND10 (DENN domain containing 10) | 4.44 | 3.43 | 3.62 | active |
| SLCO1C1 | -0.841 | -1.18 | -1.24 | inactive |
| ZNF425 (zinc finger protein 425) | -0.994 | -0.978 | -0.599 | inactive |
| OR10J1 (olfactory receptor family 10 subfamily J member 1) | -0.642 | -0.53 | -0.239 | inactive |
| LOC388420 (retired record) | -0.438 | -0.469 | -0.227 | inactive |
| POLB (DNA polymerase beta) | -0.651 | -0.804 | -0.811 | inactive |
| ERCC6L2-AS1 (ERCC6L2 antisense RNA 1) | -0.681 | -0.79 | -0.937 | inactive |
| DNALI1 (dynein axonemal light intermediate chain 1) | 0.985 | 1.44 | 0.679 | inactive |
| DNM3 (dynamin 3) | 0.716 | 1.23 | 1.28 | inactive |
| KLHL11 (kelch like family member 11) | -0.48 | -1.12 | -0.554 | inactive |
| RAB33A (RAB33A, member RAS oncogene family) | -0.391 | -0.643 | -0.676 | inactive |
| BRD2 (bromodomain containing 2) | -0.64 | 0.562 | -0.208 | inactive |
| LOC440855 (retired record) | 0.043 | 0.0456 | 0.0571 | inactive |
| SRMS | 1.62 | 1.53 | 1.67 | inactive |
| CSTF1 (cleavage stimulation factor subunit 1) | -0.19 | -0.0258 | -0.527 | inactive |
| TBX20 (T-box transcription factor 20) | 0.407 | 2.41 | 1.25 | inactive |
| KCNT2 (potassium sodium-activated channel subfamily T member 2) | 1.83 | 1.38 | 1.59 | inactive |
| MAN2B1 (mannosidase alpha class 2B member 1) | -0.583 | -0.449 | -0.867 | inactive |
| CIMAP3 (ciliary microtubule associated protein 3) | -0.928 | -0.868 | -0.654 | inactive |
| ZDHHC18 (zDHHC palmitoyltransferase 18) | -0.0906 | -0.386 | -0.308 | inactive |
| OSGEPL1 (O-sialoglycoprotein endopeptidase like 1) | -0.264 | 0.818 | 0.202 | inactive |
| MARCHF10 (membrane associated ring-CH-type finger 10) | -0.2 | -1.43 | -1.38 | inactive |

Part of the list above, reformatted.
{"target":"CNN3 (calponin 3)","robust z-score, replicate 1":1.78,"robust z-score, replicate 2":1.83,"robust z-score, replicate 3":1.73,"Outcome":"inactive"}
{"target":"OTOG (otogelin)","robust z-score, replicate 1":-0.842,"robust z-score, replicate 2":-0.044,"robust z-score, replicate 3":0.0522,"Outcome":"inactive"}
{"target":"RPL22 (ribosomal protein L22)","robust z-score, replicate 1":-0.434,"robust z-score, replicate 2":1.65,"robust z-score, replicate 3":-0.959,"Outcome":"inactive"}
{"target":"ART3 (ADP-ribosyltransferase 3 (inactive))","robust z-score, replicate 1":0.402,"robust z-score, replicate 2":-0.749,"robust z-score, replicate 3":-0.0166,"Outcome":"inactive"}
{"target":"CAMK4 (calcium/calmodulin dependent protein kinase IV)","robust z-score, replicate 1":0.465,"robust z-score, replicate 2":0.681,"robust z-score, replicate 3":1.04,"Outcome":"inactive"}
{"target":"STX17-DT (STX17 divergent transcript)","robust z-score, replicate 1":-0.556,"robust z-score, replicate 2":-0.0903,"robust z-score, replicate 3":0.000173,"Outcome":"inactive"}
{"target":"MUC7 (mucin 7, secreted)","robust z-score, replicate 1":1.25,"robust z-score, replicate 2":1.49,"robust z-score, replicate 3":1.71,"Outcome":"inactive"}
{"target":"SEZ6 (seizure related 6 homolog)","robust z-score, replicate 1":-0.725,"robust z-score, replicate 2":-0.599,"robust z-score, replicate 3":-1.26,"Outcome":"inactive"}
{"target":"BRF2 (BRF2 general transcription factor IIIB subunit)","robust z-score, replicate 1":1.54,"robust z-score, replicate 2":1.64,"robust z-score, replicate 3":1.48,"Outcome":"inactive"}
{"target":"TMEM17 (transmembrane protein 17)","robust z-score, replicate 1":1.92,"robust z-score, replicate 2":1.83,"robust z-score, replicate 3":1.16,"Outcome":"inactive"}
{"target":"IFNW1 (interferon omega 1)","robust z-score, replicate 1":-0.965,"robust z-score, replicate 2":-1.14,"robust z-score, replicate 3":-0.989,"Outcome":"inactive"}
{"target":"PRR5 (proline rich 5)","robust z-score, replicate 1":1.08,"robust z-score, replicate 2":-0.35,"robust z-score, replicate 3":0.728,"Outcome":"inactive"}
{"target":"DEFB124 (defensin beta 124)","robust z-score, replicate 1":0.0306,"robust z-score, replicate 2":-0.0867,"robust z-score, replicate 3":-0.235,"Outcome":"inactive"}
{"target":"PTGDR (prostaglandin D2 receptor)","robust z-score, replicate 1":-0.803,"robust z-score, replicate 2":-0.325,"robust z-score, replicate 3":-0.593,"Outcome":"inactive"}
{"target":"LGALS9 (galectin 9)","robust z-score, replicate 1":3.5,"robust z-score, replicate 2":4.24,"robust z-score, replicate 3":4.42,"Outcome":"active"}
